Experimental data: paper doi:10.1101/871517
Like-named read-outs stand apart in the source and are kept apart here. No constants are given. Whether binding was seen depends on the method and setting. In cells and extracts the contact can be indirect. Here binding means that the protein was enriched with, or labelled near, the bait; the list need not be complete.

Protein sequences, listed by entry. Tags and fused reporters are not part of them.
UniProt Q9NP72, whole entry: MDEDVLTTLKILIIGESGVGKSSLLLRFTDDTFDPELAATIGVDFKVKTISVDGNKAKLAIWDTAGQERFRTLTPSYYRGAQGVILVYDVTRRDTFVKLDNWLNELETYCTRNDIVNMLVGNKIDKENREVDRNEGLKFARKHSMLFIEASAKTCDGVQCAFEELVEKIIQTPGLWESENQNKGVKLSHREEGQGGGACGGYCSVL

Assays:
[1] = biological target: BirA*-RAB18 (UniProt Q9NP72); assay: proximity labelling
[2] = biological target: BirA*-RAB18 (UniProt Q9NP72); assay: proximity labelling; remark: listed apart in the source

B1: STX18 (protein, UniProt Q9P2W9 1-335)
chain: MAVDITLLFRASVKTVKTRNKALGVAVGGGVDGSRDELFRRSPRPKGDFSSRAREVISHIGKLRDFLLEHRKDYINAYSHTMSEYGRMTDTERDQIDQDAQIFMRTCSEAIQQLRTEAHKEIHSQQVKEHRTAVLDFIEDYLKRVCKLYSEQRAIRVKRVVDKKRLSKLEPEPNTKTRESTSSEKVSQSPSKDSEENPATEERPEKILAETQPELGTWGDGKGEDELSPEEIQMFEQENQRLIGEMNSLFDEVRQIEGRVVEISRLQEIFTEKVLQQEAEIDSIHQLVVGATENIKEGNEDIREAIKNNAGFRVWILFFLVMCSFSLLFLDWYDS
For B1, the binding [1] was “binds” and the binding [2] was “binds”.
